Consider two compounds from patent US11180523B2, “Design, synthesis and use of synthetic nucleotides comprising charge mass tags” (QuantuMDx Group Limited, priority 2016, dated 2021).

The structures appear in SMILES notation.

This data set in a line: Real-time conductance change of silicon nanowires before and after dNTP addition. Conditions: equimolar solutions (10 μM) in 0.05×PBS buffer; dATP injected at 1000 s, supercharged dTTP at 2000 s.

In the case of `[N-]=[N+]=NC(COc1cccc(C(=O)NCCNC(=O)c2cc(C(=O)O)cc(C(=O)O)c2)c1)OCCOCC(=O)NCC#Cc1cn([C@H]2C[C@H](O)[C@@H](COP(=O)(O)OP(=O)(O)OP(=O)(O)O)O2)c(=O)[nH]c1=O` (some centres unmarked) [SC-TTP, Penta-Triethylammonium Cleavable SCTTP], the “change in conductance of the nanowires” value is listed as 20%.

On to `Nc1ncnc2c1ncn2[C@H]1C[C@H](O)[C@@H](COP(=O)(O)OP(=O)(O)OP(=O)(O)O)O1` [dATP, deoxyandenosinetriphosphate, reference compound], for which the “change in conductance of the nanowires” value was 16%.
